Results on 1 substance are retold here after PMC2887854.

The chains behind the UniProt entries cited, without tags or fusion partners. Where a name states a change or a piece, a line headed by the entry shows the natural chain unless it says otherwise. A line that says so, or that is headed by a name, gives the form on record, which may keep a tag or linker. Residues count along the entry.
TEM8 extracellular vWA domain (residues 38-220) with the C177A mutation, called WT (Q9H6X2-1, form named): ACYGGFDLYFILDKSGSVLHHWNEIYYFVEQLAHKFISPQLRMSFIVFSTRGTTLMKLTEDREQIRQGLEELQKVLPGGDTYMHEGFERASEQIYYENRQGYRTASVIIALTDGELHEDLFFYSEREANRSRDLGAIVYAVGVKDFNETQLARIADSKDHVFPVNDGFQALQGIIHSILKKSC

Results are given in words; binding and its absence hold for the method and conditions named.

For experiment [1], the target named is TEM8 extracellular vWA domain (residues 38-220) with the C177A mutation, called WT (human) (UniProt Q9H6X2). As to the kind of experiment: crystal structure; both purified.
Experiment [2] shares this target. As to the kind of experiment: AUC; both purified.
Experiment [3] shares this target. The experiment is described as follows: SEC; gel filtration of TEM8 vWA domain in solution; both purified. For orientation: In gel filtration, larger molecules generally elute earlier.

Take “TEM8 extracellular vWA domain (residues 38-220) with the C177A mutation, called WT (from UniProt Q9H6X2-1 38-220) (domain or fragment)”: the binding result is listed as “no binding” in experiment [1], “no binding (tested: 1 mg/ml)” in experiment [2] and “no binding” in experiment [3].
